Source: PubChem BioAssay AID602196 (INSERM, 2012)

- Test: 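Genes whose knock-down alters cisplatin killing of lung cancer cells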
- Cells: human A549 lung cancer cells
- Reagent: siRNA pair against human genes
- Timing: 48 h transfection before cisplatin; time from cisplatin to read-out not stated
- Conditions: cisplatin at a dose killing half of control-siRNA cells; exact dose and duration not given
- Read-out: 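Cisplatin cell death as a shift from the 50% death seen with control siRNA; siRNAs toxic or growth-blocking alone scored 0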
- Reading the numbers: two-siRNA summed score (-2 to +2): higher = both siRNAs protect from cisplatin killing; -2 means both sensitise; mean protection from cisplatin (shift in death) and protection from cisplatin (shift in death), siRNA C and protection from cisplatin (shift in death), siRNA D: higher = protection from cisplatin killing
- Hit rule: 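Each siRNA scores 0 if harmful alone by LDH or WST-1, otherwise +1 if it reduces and -1 if it increases cisplatin killing; a gene is active when both siRNAs agree (sum +2 or -2)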
- Meaning of the calls: active = both siRNAs shift cisplatin killing the same way; inactive = no consistent shift, or siRNA harmful alone
In all, the deposit lists about 23,000 reagents; below is a random part of them. 455 of all reagents (2%) count as active. 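Active includes both protection and sensitisation; some change values fall well beyond the stated -50 to +50 range.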 A number with no mark means an inactive call. No sequences are given here. Not stated in the record: the amount of reagent.

gene,two-siRNA summed score (-2 to +2),mean protection from cisplatin (shift in death) (%),"protection from cisplatin (shift in death), siRNA C (%)","protection from cisplatin (shift in death), siRNA D (%)"
EMCN,0,1.6,4.5,-1.4
NMRAL1,0,7.9,11.6,4.3
CUX1,-1,0.5,14.6,-13.6
LOC401638,0,-2.1,-4.5,0.4
KCTD8,0,6.9,10.8,3
OPRPN,0,9.1,4.4,13.7
DAGLB,-1,4.7,-4,13.3
LINC01120,0,7.1,13.8,0.5
SYNPO,0,9.1,8.8,9.4
USP25,0,2,0,3.9
NPRL3,0,1.8,-3,6.7
DUX3,0,7.2,3.6,10.8
NOTCH2,0,-17.8,-32.9,-2.7
LOC346305,0,2.2,3.3,1.1
PIN4,1,15.2,14.2,16.2
HAND2,0,-6.8,-3.3,-10.2
TMEM273,1,13.3,0.7,26
PRMT6,0,-0.7,-11.1,9.7
LINC00471,0,-10.4,-8.7,-12.1
LOC389328,1,26.5,23.1,29.9
SEZ6L,0,-13.6,-4.3,-22.9
SPAG16,0,7.1,6.8,7.4
LOC442589,0,2.3,-1.9,6.4
MUC3B,-1,-16.9,-34.3,0.5
STX4,1,8.8,4,13.6
LOC339209,1,11.8,8.2,15.4
KRTAP12-4,2 (active),22.9,23.7,22
MOAP1,0,3.3,4.8,1.8
LPAR1,-1,-4.3,8.9,-17.6
KCNK7,0,-5.6,-7.5,-3.6
CXCL12,0,-4.2,14.8,-23.3
DOCK6,0,-3.2,-11.8,5.5
FGF18,0,5.3,16,-5.3
ELL2,1,17.3,22.8,11.8
GTSE1,0,-30.1,-51.4,-8.8

A portion of the results above, for reference:
gene,two-siRNA summed score (-2 to +2),mean protection from cisplatin (shift in death) (%),"protection from cisplatin (shift in death), siRNA C (%)","protection from cisplatin (shift in death), siRNA D (%)"
OPRPN,0,9.1,4.4,13.7
DAGLB,-1,4.7,-4,13.3
LINC01120,0,7.1,13.8,0.5
SYNPO,0,9.1,8.8,9.4
USP25,0,2,0,3.9
NPRL3,0,1.8,-3,6.7
DUX3,0,7.2,3.6,10.8
NOTCH2,0,-17.8,-32.9,-2.7

The results go on:
gene,two-siRNA summed score (-2 to +2),mean protection from cisplatin (shift in death) (%),"protection from cisplatin (shift in death), siRNA C (%)","protection from cisplatin (shift in death), siRNA D (%)"
ATXN2L,-1,-25.9,-30.1,-21.7
SORD,0,-12.8,-10.6,-15
LOC348938,0,3.5,-0.7,7.7
SF3A2,0,-17.2,-0.7,-33.8
AGBL5,0,-4.4,-9.8,1
USP34,-1,-6.9,8.1,-21.9
P2RX2,-1,-22.6,1.4,-46.5
LOC402516,0,15.3,19.2,11.4
DDX1,0,7.9,27.9,-12
DISP1,0,-5.8,-8.2,-3.5
SYNCRIP,1,12.2,15.8,8.6
NTN5,0,2.3,3.6,0.9
COMMD1,0,-10,-18.4,-1.6
MYG1,0,5.1,10.1,0
PLEKHG2,0,-4.4,-9.4,0.6
ATP13A4,0,4.6,11.3,-2.1
THSD1,0,9.7,16.3,3.1
WDR72,0,1.6,-7.8,11
HRH3,0,-1.2,16.7,-19.1
ADA2,0,-17.7,-2.9,-32.4
MYC,0,-1.9,-6.7,2.9
SPTBN2,0,3.8,19.8,-12.2
LOC137814,0,5.3,19.7,-9
PSG9,0,10.7,5.2,16.2
LOC390363,1,6.5,-4.2,17.2
NDUFS5,0,-11.4,-10.5,-12.4
GNPDA2,0,13.1,11.4,14.8
FHL5,0,-6.7,-7.5,-5.9
HDAC7,0,-29.1,-36.2,-22.1
COPG2,0,-0.8,6.4,-8.1
TMEM141,0,0.1,4.1,-3.8
ARF5,0,3.7,4.8,2.5
TKTL2,0,1.5,-1.9,4.8
CCN6,0,-6.7,-6,-7.3
LOC387762,1,22.3,21.6,23
BBS4,0,9.8,5.7,13.9
LOC389896,0,-0.5,6,-7
KLF7,-1,-10.6,9.7,-30.8
